For at least one compound, name, drawing or mass did not settle the structure.
Experiments:
[1] = tested on: α-galactosidase protein; assay: Rapamycin+Anti-CD40L experiments: anti-α-gal antibody titers; assay type: in vivo, Balb/c mice; conditions: Ad2/CMVα-gal 6e10 particles/mouse I.V. day 0; MR-1 500 ug/mouse I.P. days -1,+2,+7,+13; rapamycin 2.5 mg/kg I.P. daily day 0 to +13; FIG. 1
[2] = tested on: a-galactosidase protein; assay: Antibody response after co-administration of rapamycin with Ad2/α-gal vector; assay type: in vivo; conditions: rapamycin 70 ug per mouse I.P. daily for 7 days; Ad2/α-gal vector I.V.

CO[C@H]1C[C@@H]2CC[C@@H](C)[C@@](O)(O2)C(=O)C(=O)N2CCCC[C@H]2C(=O)O[C@H]([C@H](C)C[C@@H]2CC[C@@H](O)[C@H](OC)C2)CC(=O)[C@H](C)/C=C(\C)[C@@H](O)[C@@H](OC)C(=O)[C@H](C)C[C@H](C)/C=C/C=C/C=C/1C [Rapamycin, rapamycin]
anti-α-gal antibody titers versus control group (Ad vector alone) [1]: significantly lower | antibody response to a-galactosidase protein [2]: significantly inhibited

Source: patent US7307068B2, “Use of rapamycin to inhibit immune response and induce tolerance to gene therapy vector and encoded transgene products” (Genzyme Corporation, priority 2000, dated 2007)
